Assay results: the supplement of paper PMC11264405

Columns and labels:
Experiment in all cases: minimum inhibitory concentration
tigecycline = compound: CN(C)c1cc(NC(=O)CNC(C)(C)C)c(O)c2c1C[C@H]1C[C@H]3[C@H](N(C)C)C(O)=C(C(N)=O)C(=O)[C@@]3(O)C(O)=C1C2=O [tigecycline]
vancomycin = compound: CN[C@H](CC(C)C)C(=O)N[C@H]1C(=O)N[C@@H](CC(N)=O)C(=O)N[C@H]2C(=O)N[C@H]3C(=O)N[C@H](C(=O)N[C@H](C(=O)O)c4cc(O)cc(O)c4-c4cc3ccc4O)[C@H](O)c3ccc(c(Cl)c3)Oc3cc2cc(c3O[C@@H]2O[C@H](CO)[C@@H](O)[C@H](O)[C@H]2O[C@H]2C[C@](C)(N)[C@H](O)[C@H](C)O2)Oc2ccc(cc2Cl)[C@H]1O [vancomycin]
fidaxomicin = compound: CCc1c(Cl)c(O)c(Cl)c(O)c1C(=O)O[C@H]1[C@H](O)[C@H](OC)[C@H](OC/C2=C\C=C\C[C@H](O)/C(C)=C/[C@H](CC)[C@@H](O[C@@H]3OC(C)(C)[C@@H](OC(=O)C(C)C)[C@H](O)[C@@H]3O)/C(C)=C/C(C)=C/C[C@@H]([C@@H](C)O)OC2=O)O[C@@H]1C [fidaxomicin]
linezolid = compound: CC(=O)NC[C@H]1CN(c2ccc(N3CCOCC3)c(F)c2)C(=O)O1 [linezolid]
imipenem = compound: C[C@@H](O)[C@H]1C(=O)N2C(C(=O)O)=C(SCCNC=N)C[C@H]12 [imipenem]
metronidazole = compound: Cc1ncc([N+](=O)[O-])n1CCO [metronidazole]
rifampicin = compound: CO[C@H]1/C=C/O[C@@]2(C)Oc3c(C)c(O)c4c(O)c(c(/C=N/N5CCN(C)CC5)c(O)c4c3C2=O)NC(=O)/C(C)=C\C=C\[C@H](C)[C@H](O)[C@@H](C)[C@@H](O)[C@@H](C)[C@H](OC(C)=O)[C@@H]1C [rifampicin]
clindamycin = compound: CCC[C@@H]1C[C@@H](C(=O)N[C@@H]([C@H]2O[C@H](SC)[C@H](O)[C@@H](O)[C@H]2O)[C@H](C)Cl)N(C)C1 [clindamycin]
meropenem = compound: C[C@@H](O)[C@H]1C(=O)N2C(C(=O)O)=C(S[C@@H]3CN[C@H](C(=O)N(C)C)C3)[C@H](C)[C@H]12 [meropenem]

Row | Test System | minimum inhibitory concentration (tigecycline) [µg/mL] | minimum inhibitory concentration (vancomycin) [µg/mL] | minimum inhibitory concentration (fidaxomicin) [µg/mL] | minimum inhibitory concentration (linezolid) [µg/mL] | minimum inhibitory concentration (imipenem) [µg/mL] | minimum inhibitory concentration (metronidazole) [µg/mL] | minimum inhibitory concentration (rifampicin) [µg/mL] | minimum inhibitory concentration (clindamycin) [µg/mL] | minimum inhibitory concentration (meropenem) [µg/mL]
1 | Clostridioides difficile PCR ribotype 078 isolate #363 (European region: South, country: Italy, isolate source: Animal, ribotype: 078) | 0.125 | 1 | 0.03 | 2 | 2 | < 0.125 | < 0.001 | 8 | 4
2 | Clostridioides difficile PCR ribotype 078 isolate #364 (European region: South, country: Italy, isolate source: Animal, ribotype: 078) | 0.125 | 1 | 0.015 | 2 | 2 | < 0.125 | < 0.001 | 8 | 2
3 | Clostridioides difficile PCR ribotype 078 isolate #365 (European region: South, country: Italy, isolate source: Animal, ribotype: 078) | 0.06 | 1 | 0.015 | 2 | 2 | < 0.125 | < 0.001 | 4 | 4
4 | Clostridioides difficile PCR ribotype 078 isolate #366 (European region: West, country: Austria, isolate source: Animal, ribotype: 078) | 0.06 | 0.5 | 0.03 | 4 | 2 | 0.25 | < 0.001 | 2 | 2
5 | Clostridioides difficile PCR ribotype 078 isolate #367 (European region: East, country: Poland, isolate source: Animal, ribotype: 078) | 0.06 | 0.5 | 0.03 | 4 | 4 | 0.25 | < 0.001 | > 128 | 4
6 | Clostridioides difficile PCR ribotype 078 isolate #368 (European region: East, country: Poland, isolate source: Animal, ribotype: 078) | 0.06 | 0.5 | 0.03 | 4 | 4 | 0.25 | < 0.001 | 2 | 4
7 | Clostridioides difficile PCR ribotype 078 isolate #369 (European region: East, country: Poland, isolate source: Animal, ribotype: 078) | < 0.03 | 1 | 0.06 | 2 | 2 | < 0.125 | < 0.001 | 4 | 2
8 | Clostridioides difficile PCR ribotype 078 isolate #370 (European region: East, country: Poland, isolate source: Animal, ribotype: 078) | < 0.03 | 1 | 0.03 | 2 | 2 | < 0.125 | < 0.001 | 4 | 2
9 | Clostridioides difficile PCR ribotype 078 isolate #371 (European region: East, country: Poland, isolate source: Animal, ribotype: 078) | < 0.03 | 1 | 0.015 | 2 | 2 | < 0.125 | < 0.001 | 4 | 2
10 | Clostridioides difficile PCR ribotype 078 isolate #372 (European region: East, country: Poland, isolate source: Animal, ribotype: 078) | < 0.03 | 1 | 0.06 | 2 | 2 | 0.25 | < 0.001 | 2 | 4
11 | Clostridioides difficile PCR ribotype 078 isolate #373 (European region: East, country: Poland, isolate source: Animal, ribotype: 078) | 0.06 | 0.5 | 0.015 | 4 | 4 | 0.25 | < 0.001 | 2 | 4
12 | Clostridioides difficile PCR ribotype 081 isolate #374 (European region: West, country: Netherlands, isolate source: Animal, ribotype: 081) | < 0.03 | 1 | 0.004 | 2 | 1 | 0.25 | < 0.001 | 16 | 2
13 | Clostridioides difficile PCR ribotype 081 isolate #375 (European region: East, country: Poland, isolate source: Animal, ribotype: 081) | 0.06 | 0.5 | 0.015 | 2 | 2 | 0.25 | < 0.001 | 16 | 2
14 | Clostridioides difficile PCR ribotype 081 isolate #376 (European region: East, country: Poland, isolate source: Animal, ribotype: 081) | < 0.03 | 0.5 | 0.008 | 2 | 2 | 0.25 | < 0.001 | 8 | 2
15 | Clostridioides difficile PCR ribotype 085 isolate #195 (European region: East, country: Romania, isolate source: Human, ribotype: 085) | 0.06 | 0.5 | 0.03 | 2 | 8 | 0.5 | > 32 | > 128 | 4
16 | Clostridioides difficile PCR ribotype 087 isolate #196 (European region: South, country: Italy, isolate source: Human, ribotype: 087) | 0.06 | 1 | 0.015 | 2 | 4 | < 0.125 | < 0.001 | 16 | 2
17 | Clostridioides difficile PCR ribotype 087 isolate #377 (European region: West, country: Netherlands, isolate source: Animal, ribotype: 087) | < 0.03 | 1 | 0.015 | 2 | 1 | < 0.125 | < 0.001 | 16 | 4
18 | Clostridioides difficile PCR ribotype 088 isolate #197 (European region: South, country: Spain, isolate source: Human, ribotype: 088) | 0.06 | 0.5 | 0.06 | 2 | 8 | 0.25 | < 0.001 | 2 | 4
19 | Clostridioides difficile PCR ribotype 090 isolate #199 (European region: South, country: Italy, isolate source: Human, ribotype: 090) | 0.06 | 1 | 0.03 | 2 | 1 | < 0.125 | 0.06 | 8 | 2
20 | Clostridioides difficile PCR ribotype 101 isolate #200 (European region: North, country: UK, isolate source: Human, ribotype: 101) | < 0.03 | 0.5 | 0.06 | 2 | 2 | 0.25 | < 0.001 | 8 | 2
21 | Clostridioides difficile PCR ribotype 103 isolate #201 (European region: North, country: UK, isolate source: Human, ribotype: 103) | < 0.03 | 0.5 | 0.03 | 2 | 4 | < 0.125 | < 0.001 | 1 | 2
22 | Clostridioides difficile PCR ribotype 106 isolate #202 (European region: West, country: France, isolate source: Human, ribotype: 106) | < 0.03 | 0.5 | 0.015 | 1 | 4 | 0.25 | < 0.001 | 8 | 4
23 | Clostridioides difficile PCR ribotype 106 isolate #203 (European region: West, country: France, isolate source: Human, ribotype: 106) | < 0.03 | 0.5 | 0.06 | 2 | 2 | < 0.125 | < 0.001 | 32 | 4
24 | Clostridioides difficile PCR ribotype 106 isolate #204 (European region: South, country: Spain, isolate source: Human, ribotype: 106) | 0.06 | 0.5 | 0.06 | 2 | 4 | 0.25 | < 0.001 | 1 | 2
25 | Clostridioides difficile PCR ribotype 106 isolate #205 (European region: South, country: Spain, isolate source: Human, ribotype: 106) | 0.06 | 0.5 | 0.06 | 2 | 4 | 0.25 | < 0.001 | 8 | 4
26 | Clostridioides difficile PCR ribotype 106 isolate #206 (European region: South, country: Spain, isolate source: Human, ribotype: 106) | 0.06 | 1 | 0.06 | 2 | 4 | 0.25 | < 0.001 | 8 | 4

A second format for some results above.
Row	Test System	minimum inhibitory concentration (tigecycline) [µg/mL]	minimum inhibitory concentration (vancomycin) [µg/mL]	minimum inhibitory concentration (fidaxomicin) [µg/mL]	minimum inhibitory concentration (linezolid) [µg/mL]	minimum inhibitory concentration (imipenem) [µg/mL]	minimum inhibitory concentration (metronidazole) [µg/mL]	minimum inhibitory concentration (rifampicin) [µg/mL]	minimum inhibitory concentration (clindamycin) [µg/mL]	minimum inhibitory concentration (meropenem) [µg/mL]
14	Clostridioides difficile PCR ribotype 081 isolate #376 (European region: East, country: Poland, isolate source: Animal, ribotype: 081)	< 0.03	0.5	0.008	2	2	0.25	< 0.001	8	2
20	Clostridioides difficile PCR ribotype 101 isolate #200 (European region: North, country: UK, isolate source: Human, ribotype: 101)	< 0.03	0.5	0.06	2	2	0.25	< 0.001	8	2
